The text below walks through data of ChEMBL document CHEMBL3351454, “Design, synthesis, antimicrobial evaluation and molecular docking studies of some new thiophene, pyrazole and pyridone derivatives bearing sulfisoxazole moiety” (2014).

The test has as its system Escherichia coli. The test can be described thus: Antimicrobial activity against Escherichia coli RCMB 010052 assessed as inhibition zone at 5 mg/ml after 24 hrs. Type of test: functional. Summed up:
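Agar diffusion on nutrient agar seeded with 10^6 CFU/mL bacteria. Filter-paper disks were loaded with 100 µL of a 5 mg/mL compound solution in DMF, with a DMF-only control. Incubation was 37 °C for 24 h. Inhibition zone in mm (mean ± SD, triplicate plates) was measured beyond the 6 mm diameter.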

In the case of GENTAMICIN, the inhibition zone (IZ) was found to be 19.9 mm.
